Assay results as given in US20060088908A1.
Results are given in words; binding and its absence hold for the method and conditions named. Some entries that bind do so weakly or less than the wild type. Tags and fused reporters may be left off the sequences shown.

Protein sequences, listed by entry. Tags and fused reporters are not part of them. Residues count along the entry.
UniProt P02701, residues 25-152: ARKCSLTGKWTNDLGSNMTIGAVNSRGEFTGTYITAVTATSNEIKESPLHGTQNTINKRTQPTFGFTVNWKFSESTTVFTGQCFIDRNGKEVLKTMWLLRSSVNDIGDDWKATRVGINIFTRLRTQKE

Tests used:
Avidin (Fluka) [1] = target: Avidin (Fluka) (UniProt P02701); experiment: ELISA, avidin-coated wells without peptide
Avidin (Fluka) [2] = target: Avidin (Fluka) (UniProt P02701); experiment: ELISA control without peptide: avidin-coated wells only, mutein titrated, anti-strepII-antibody-HRP detection, A450

| binding (Avidin (Fluka) [1]) | binding (Avidin (Fluka) [2]) | Binder |
| --- | --- | --- |
| binds | binds | hNGAL mutein RFY-E with C-terminal Strep-Tag II (phNGAL15 derivative, purified) (designed binder, not shown: small tags and cut ends) QDSTSDLIPAPPLSKVPLQQNFQDNQFQGKWYLVGLAGNGITRVDTLPSRMYATIYELKEDKSYNVTSVPFMGKKCKYKIRTFVPGSQPGEFTLGNIKSYMSNTSFLVRVVSTNYNQHAMVFFKQVHKNPESFKITIYGRTKELPSELKENFIRFSKSLGLPENHIVFPVPIDQCIDG |
| binds | binds | hNGAL mutein RFY-C with C-terminal Strep-Tag II (phNGAL15 derivative, purified) (designed binder, not shown: small tags and cut ends) QDSTSDLIPAPPLSKVPLQQNFQDNQFQGKWYLVGLAGNGIHRLDNVPPNMYATIYELKEDKSYNVTSVDFLMKKCPYFIRTFVPGSQPGEFTLGNIKSYPFLTSFLVRVVSTNYNQHAMVFFKNVPRNYEEFKITIYGRTKELPSELKENFIRFSKSLGLPENHIVFPVPIDQCIDG |
